Measurements reported in PubChem BioAssay AID504467 (National Center for Advancing Translational Sciences (NCATS), 2011).
The campaign covered roughly 330,000 compounds. About 7,700 (2.3%) were called active. The inconclusive results got no clear call from the source; some entries with a clear call stand among them for comparison. The call rests on the fitted dose curve; in most records, active means well fitted inhibition curve with a large enough effect; inconclusive means small, poorly fitted or top-dose-only effect, or effect the other way; inactive means flat fitted curve, though single readings scatter. Potencies beside an inconclusive call are fits to weak or partial responses and may not hold up.

Test: qHTS screen for small molecules that inhibit ELG1-dependent DNA repair in human embryonic kidney (HEK293T) cells expressing luciferase-tagged ELG1; further: nearly all actives have a fitted effect of over 55% in size
Settings: HEK293T ELG1-luciferase reporter, luminescence, 16 h, DNA damage induced by 5-fluorouridine; activity change, negative = inhibition: at 46.1 µM (top of the series)
Summary of the method: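 DMSO vehicle served as the neutral condition. Each well held 2,000 cells given 5-fluorouridine plus compound; after 16 hr at 37 °C/5% CO2, ONE-Glo was added and luciferase measured 30 min later.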
On the % scale 0 is the no-effect control and ±100 the full control effect; potency means the concentration at half of the fitted maximal effect.

Row | SMILES | Potency | activity change, negative = inhibition
1 | CNC(=O)c1ccc(Nc2nc(-c3ccccc3)nc3ccccc23)cc1 | active: 14.6 µM | –
2 | CCc1nnc2sc(-c3cc(-c4ccccc4)nc4ccccc34)nn12 | – | inactive: -27.4%
3 | CCc1nc2sc3c(=O)n(N)cnc3c2c2c1COC(C)(C)C2 | inconclusive: 20.6 µM [activator, partial curve, poor fit] | –
4 | CCN(CC)CCN(C(=O)CCOc1ccccc1)c1nc2ccc(F)cc2s1 | inconclusive: 16.4 µM [activator, single point] | –
5 | Cc1ccc(C)c(S(=O)(=O)N2CCN(C(=O)Cc3ccc(S(=O)(=O)N4CCOCC4)s3)CC2)c1 | inconclusive: 5.8 µM [inhibitor, single point] | –
6 | O=C(c1ccc(S(=O)(=O)c2ccc(F)cc2)c([N+](=O)[O-])c1)N1CCCCCC1 | inconclusive: 6.51 µM [inhibitor, partial curve] | –
7 | NCC12CC3CC(C1)CC(c1ccc(Cl)cc1)(C3)C2 | inconclusive: 20.6 µM [activator, single point] | –
8 | COc1ccc(CN(C)C(=O)c2cccc(C(=O)N(C)Cc3ccc(OC)cc3)c2)cc1 | inconclusive: 5.17 µM [inhibitor, full curve] | –
9 | O=c1c2ccccc2cnn1-c1nc2ccccc2[nH]1 | inconclusive: 0.073 µM [activator, full curve, poor fit] | –
10 | COc1ccccc1CNC(=O)/C=C/c1ccc(S(=O)(=O)NCc2ccco2)cc1 | inconclusive: 16.4 µM [inhibitor, partial curve, poor fit] | –
11 | Cc1cccc(C#N)c1NC1=CC(=O)CC(C)(C)C1 | – | inactive: 9.81%
12 | COc1ccc(C(=O)NNC(=O)COC(=O)c2sccc2C)cc1 | – | inactive: 11.2%
13 | COc1ccc(-c2[nH]ncc2/C=N/NC(=O)c2cccc([N+](=O)[O-])c2)cc1OC | inconclusive: 14.6 µM [inhibitor, partial curve, poor fit] | –
14 | CN1CCS/C1=C/C=C1/SC(=S)N(Cc2ccccc2)C1=O | inconclusive: 18.4 µM [activator, partial curve] | –
15 | CC(C)Cn1cnc2sc3c(c2c1=N)CCCC3 | inconclusive: 32.6 µM [activator, partial curve, poor fit] | –
16 | Cc1ccc(NC(=O)CCCn2nc(C)c3c(C)n(-c4ccccc4)nc3c2=O)c(Cl)c1 | – | inactive: 0%
17 | CC(C)CCNC(=O)c1cccc(Cl)c1 | – | inactive: 17.3%
18 | CCOC(=O)c1c(C)[nH]c(-c2csc(C)n2)c1C | inconclusive: 10.3 µM [activator, partial curve] | –
19 | Cc1nc2ccc(NC(=O)COc3ccccc3F)cc2s1 | inconclusive: 10.3 µM [activator, partial curve] | –

Some of the entries so far, tab-delimited:
Row	SMILES	Potency	activity change, negative = inhibition
16	Cc1ccc(NC(=O)CCCn2nc(C)c3c(C)n(-c4ccccc4)nc3c2=O)c(Cl)c1	–	inactive: 0%
17	CC(C)CCNC(=O)c1cccc(Cl)c1	–	inactive: 17.3%
